The nature of the data set: general procedure: Fmoc solid-phase peptide synthesis; Rink amide MBHA resin (AAPPTEC). Conditions: late stage modification step.

In turn, AcVELARRPLPPLPN-NH2 yielded a step yield of 73%.

The values above are taken from PMC5667506 (Chemical Science, 2015).
